According to PubChem BioAssay AID720522 (National Center for Advancing Translational Sciences (NCATS), 2013):
Screen size: about 1,400 compounds; about 60 (4%) were called active. This list was built around the results that the source calls inconclusive (neither active nor inactive); the mix of calls is not that of the screen. Calls follow the shape of the dose curve; as a rule, active = well fitted inhibition curve with a large enough effect; inconclusive = small, poorly fitted or top-dose-only effect; inactive = flat fitted curve, though single readings scatter. Where the call is inconclusive, the potency comes from a doubtful curve fit.

Chains of the proteins cited; added tags and fusions are not shown.
UniProt P08659, whole entry, looked up: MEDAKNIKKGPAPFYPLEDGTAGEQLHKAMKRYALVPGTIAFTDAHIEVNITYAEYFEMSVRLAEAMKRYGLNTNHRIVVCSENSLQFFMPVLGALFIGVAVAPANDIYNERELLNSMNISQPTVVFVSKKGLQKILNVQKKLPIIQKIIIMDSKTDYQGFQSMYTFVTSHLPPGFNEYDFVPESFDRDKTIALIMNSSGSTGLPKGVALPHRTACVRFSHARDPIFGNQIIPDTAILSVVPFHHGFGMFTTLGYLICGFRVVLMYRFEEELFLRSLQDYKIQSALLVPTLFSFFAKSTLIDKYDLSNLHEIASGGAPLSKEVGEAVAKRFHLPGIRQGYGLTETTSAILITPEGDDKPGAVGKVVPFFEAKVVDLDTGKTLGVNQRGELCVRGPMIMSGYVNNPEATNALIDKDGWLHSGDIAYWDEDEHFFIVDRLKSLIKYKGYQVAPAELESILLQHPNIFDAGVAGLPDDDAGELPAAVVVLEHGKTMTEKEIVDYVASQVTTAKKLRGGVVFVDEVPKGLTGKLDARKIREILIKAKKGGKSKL

molecular target: Luciferin 4-monooxygenase (Photinus pyralis) (UniProt P08659); experiment: Nrf2 qHTS screen for inhibitors: Purified Fluc Biochemical Counterscreen for Hit Validation; settings: purified firefly luciferase, luminescence inhibition; series mostly up to 57.5 µM; activity change, negative = inhibition: at the top concentration; also: nearly all actives have a fitted effect of over 65% in size
Text: Nrf2 is a transcription factor that maintains cellular redox homoestasis and protects cells from xenobiotics. Nrf2 binds to the antioxidant response element (ARE) to induce gene expression of a broad spectrum of genes that encode for antioxidants. […] Finding a small molecule that act as an inhibitor of Nrf2 function would represent a novel therapeutic target that could lead to improvement in survival of patients undergoing chemo- and/or radio- therapy.
A biochemical assay in 1536 well format was developed and utilized to remove compounds that inhibit the luciferase reporter (Fluc) rather than the Nrf2 enzyme. Inhibition of this assay = false positive inhibition of Nrf2.
NIH Chemical Genomics Center [NCGC]
NIH Molecular Libraries Probe Centers Network [MLPCN]
Assay Submitter (PI): Shyam Biswal, Johns Hopkins University
[1] Shibata T., et al., Genetic alteration of Keap1 confers constitutive Nrf2 activation and resistance to chemotherapy in gallbladder cancer. Gastroenterology, 2008.
[2] Sjoblom T., et al., The consensus coding sequences of human breast and colorectal cancers. Science, 2006.
Three microliter of substrate solution containing 50mM Tris acetate, 13.3 mM Mg-acetate, 0.01mM ATP, 0.01% Tween, 0.05% BSA and 0.01mM D-Luciferin (Sigma, #L9504) was dispensed into 1536 well white solid bottom assay plate (Greiner Bio, #789173-F). Twenty-three nanoliter of compounds dissolved in DMSO at different concentrations was added to the plate using a Kalypsys 1536-pin tool. Then 1 uL of firefly luciferase reagent containing 50mM Tris-acetate and 0.04uM P. pyralis luciferase (Sigma, #L9506) was added. The final DMSO concentration was maintained at 0.56%. Luminescence signal was acquired using the PerkinElmer Viewlux plate reader after incubation at room temperature for 10 minutes.
% is scaled to controls: 0 for no effect and ±100 for the full control effect; potency is read from the fitted curve at half-maximal effect.

| Structure (SMILES) | activity change, negative = inhibition | Potency |
| --- | --- | --- |
| COc1cccc(Cn2c(NCc3ccco3)nc3c2c(=O)n(C)c(=O)n3C)c1 | inactive: -0.53% | – |
| O=C(Nc1ccc(Oc2cccnc2)nc1)c1ccc(C(F)(F)F)cc1 | – | inconclusive: 19 µM [inhibitor, single point] |
| Nc1ccc(Oc2ccccc2-c2ccccc2)cc1 | – | inconclusive: 21.3 µM [inhibitor, single point] |
| COc1ccc(NC(=O)COc2ccc(N(C)S(=O)(=O)c3ccc(Cl)cc3)cc2)cc1OC | inactive: 3.37% | – |
| CCCCCc1ccc(OCCOCCn2c[n+](C)c3ccccc32)c(CCCCC)c1 | inactive: -0.595% | – |
| COc1ccc(OCC(O)Cn2c(NCCO)nc3c2c(=O)n(C)c(=O)n3C)cc1 (stereo unspecified) | inactive: 0.872% | – |
| COc1cccc(-c2nc(CS(=O)(=O)CC(=O)N3CCN(c4cc(C)ccc4C)CC3)c(C)o2)c1 | inactive: -16.5% | – |
| COc1ccc(-c2csc(NC(=O)c3ccccc3NS(=O)(=O)c3ccc(F)c(F)c3)n2)cc1 | – | inconclusive: 26.9 µM [inhibitor, partial curve] |
| CC1CCc2c(sc(NC(=O)/C=C/c3cccs3)c2C(=O)O)C1 (stereo unspecified) | – | inconclusive: 19 µM [inhibitor, partial curve] |
| O=C(N/N=C(\c1ccccc1)c1cccnc1)c1cccc(F)c1 | inactive: -19.7% | – |
| COc1ccc(N2CCN(c3ncnc4onc(C)c34)CC2)cc1 | inactive: 3.26% | – |
| CS(=O)(=O)N1CCCc2cc(C(=O)Nc3cccc(C(F)(F)F)c3)ccc21 | – | inconclusive: 23.9 µM [inhibitor, partial curve] |
| CC(C)(C)c1ccc(-n2ncc3c2CCCC3NC(=O)c2ccncc2)cc1 (stereo unspecified) | – | inconclusive: 12 µM [inhibitor, partial curve] |
| CCN(CC)c1ccc(/C=C/c2ccnc3ccccc23)cc1 | – | inconclusive: 16.9 µM [inhibitor, partial curve] |
| COc1cc(NCCCC(C)N)c2ncccc2c1 (stereo unspecified) | inactive: -3.98% | – |
| CCOc1ccc(S(=O)(=O)NCc2ccncc2)cc1 | inactive: -0.0601% | – |
| CCCCC(=O)O[C@]1(C(=O)CO)CC[C@H]2[C@@H]3CCC4=CC(=O)CC[C@]4(C)[C@H]3[C@@H](O)C[C@@]21C | inactive: -0.685% | – |
| CCC(C)(C)c1ccc(Oc2ccc(NC(=O)COC(=O)C3=COCCO3)cc2)cc1 | – | inconclusive: 19 µM [inhibitor, partial curve] |
| CCOc1ccc2c(c1)C(=NNC(=O)c1ccncc1)c1cc(OCC)ccc1-2 | – | inconclusive: 6.01 µM [inhibitor, partial curve] |
| Cc1c(/C=N/NC(=O)c2cccnc2)c2ccccc2n1Cc1ccccc1 | – | inconclusive: 2.69 µM [inhibitor, full curve, poor fit] |
| C/C(=N\NC(=O)c1cc(-c2cccs2)nc2ccccc12)c1ccccn1 | – | active: 9.53 µM |
| COC(=O)CSc1ncnc2c1sc1nc3c(cc12)COC(C)(C)C3 | – | inconclusive: 10.7 µM [inhibitor, partial curve] |
| COc1ccc(NS(=O)(=O)c2cccc(NC(=O)c3ccc(Cl)nc3)c2)cc1 | inactive: -0.271% | – |

In the list so far, these contain a CF3 group.

| Structure (SMILES) | activity change, negative = inhibition | Potency |
| --- | --- | --- |
| O=C(Nc1ccc(Oc2cccnc2)nc1)c1ccc(C(F)(F)F)cc1 | – | inconclusive: 19 µM [inhibitor, single point] |
| CS(=O)(=O)N1CCCc2cc(C(=O)Nc3cccc(C(F)(F)F)c3)ccc21 | – | inconclusive: 23.9 µM [inhibitor, partial curve] |

Additional compounds follow:

| Structure (SMILES) | activity change, negative = inhibition | Potency |
| --- | --- | --- |
| O=C(CCCc1nc(-c2ccccc2Cl)no1)NC1CCCC1 | – | inconclusive: 23.9 µM [inhibitor, single point] |
| COc1ccc(N2CCN(c3ncnc4c3[nH]c3ccccc34)CC2)cc1 | inactive: 1.31% | – |
| NC(=O)c1ccc(NC(=O)C#Cc2ccccc2)cc1 | – | inconclusive: 10.7 µM [inhibitor, partial curve] |
| C[n+]1c(/C=C/c2ccc(F)cc2)ccc2ccccc21 | – | inconclusive: 21.3 µM [inhibitor, single point] |
| CCN1CCN(C(=S)c2ccc(-c3ccccc3)cc2)CC1 | – | inconclusive: 15.1 µM [inhibitor, partial curve] |
| Cc1ccc(-c2cc3cccc[n+]3cc2-c2ccc(C)cc2)cc1 | inactive: 0.851% | – |
| Cc1cc(C(=O)NC2CCCc3c2cnn3-c2ccc(C(C)(C)C)cc2)n[nH]1 (stereo unspecified) | – | inconclusive: 12 µM [inhibitor, partial curve] |
| Cc1ncoc1C(=O)NC1CCCc2c1cnn2-c1ccc(C(C)(C)C)cc1 (stereo unspecified) | – | inconclusive: 26.9 µM [inhibitor, single point] |
| CC(=NNC(=S)N1CC2CCC(CC2)C1)c1ccncn1 | – | active: 10.7 µM |
| Cc1ccc(C)c(N2CCN(C(=O)CCS(=O)(=O)c3ccc4c(c3)NC(=O)C(C)S4)CC2)c1 (stereo unspecified) | inactive: 0.51% | – |
| COc1ccc(CNc2ncnc3c2[nH]c2ccccc23)cc1 | – | inconclusive: 26.9 µM [inhibitor, single point] |
| Cn1c(=O)c2c(nc(SCC(=O)Nc3ccc(OC(F)(F)F)cc3)n2Cc2cccc(C(F)(F)F)c2)n(C)c1=O | inactive: 1.53% | – |
| COc1cccc2c1C(=O)c1c(O)c3c(c(O)c1C2=O)CC(O)(C(=O)CO)CC3OC1CC(N(C)C)C(O)C(C)O1 (stereo unspecified) | – | inconclusive: 19 µM [inhibitor, single point] |
| CC(C)(C)c1ccc(Oc2ccc(N)cc2)cc1 | – | inconclusive: 15.1 µM [inhibitor, partial curve] |
| Cc1ccc(C(=O)Oc2coc(CSc3nnc(NC(=O)c4cccs4)s3)cc2=O)cc1 | – | inconclusive: 7.57 µM [inhibitor, full curve, poor fit] |
| COc1ccc2c(c1)/C(=C\c1cccc(/C=C3/C(=O)Nc4ccc(OC)cc43)n1)C(=O)N2 | – | inconclusive: 30.1 µM [inhibitor, single point] |
| CCc1ccc(NC(=O)c2ccc(Cn3nc(N4CCN(c5ccccc5)CC4)ccc3=O)o2)cc1 | – | inconclusive: 19 µM [inhibitor, partial curve] |
| Cc1ccc(CNc2c(C)c(C)nc3nncn23)cc1 | inactive: -1.07% | – |
| O=C(CNc1cccc2ccccc12)N/N=C/c1ccc[nH]1 | – | inconclusive: 21.3 µM [inhibitor, single point] |
| Cc1ccc(C(=O)Nc2ccc(Br)c(C(F)(F)F)c2)cc1 | – | active: 6.75 µM |
| C=C(c1nc2ccccc2s1)C1Cc2cccc3c2N(CCC3)C1 (stereo unspecified) | – | active: 12 µM |
| CC(C)(C)c1ccc(-c2noc(CCC(N)=O)n2)cc1 | – | active: 3.01 µM |
| CC(C)(C)c1ccc(C(=O)N2CCCCCC2=O)cc1 | – | inconclusive: 16.9 µM [inhibitor, partial curve] |
